Several values for one entry are separate records, joined by “and”; a condition that tells them apart may be missing. Equal values may be shown once. This is one part of the list. Some well-known active drugs show little effect in this data set, so a weak value is uncertain.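 The cells are human mesenchymal stem cells that lack the Werner syndrome gene and age prematurely. Growth was tracked by automated live-cell imaging in three biological repeats, and the twenty drugs that most raised growth over vehicle were taken forward, with no fixed cutoff stated.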
System: Werner syndrome hMSCs (WRN-/-)
Experiment: relative cell density (fold change vs vehicle control); higher = more proliferation (geroprotective)
Settings: concentration (umol/L): 1, 6 days

SMILES	relative cell density (vehicle: DMSO)	relative cell density (vehicle: Water)
CC1(C)O[C@@H]2C[C@H]3[C@@H]4CCC5=CC(=O)C=C[C@]5(C)[C@@]4(F)[C@@H](O)C[C@]3(C)[C@]2(C(=O)CO)O1	1.08	–
Cc1cnc(NC(=O)C2=C(O)c3ccccc3S(=O)(=O)N2C)s1	1.12	–
O=C(O)CCCc1ccccc1	0.935	–
O=C(O)COC(=O)Cc1ccccc1Nc1c(Cl)cccc1Cl	1.3	–
OC1(c2ccc(Cl)c(C(F)(F)F)c2)CCN(CCCC(c2ccc(F)cc2)c2ccc(F)cc2)CC1	1.23	–
C[C@@H]1C[C@H]2[C@@H]3CCC4=CC(=O)C=C[C@]4(C)[C@@]3(F)[C@@H](O)C[C@]2(C)[C@@]1(O)C(=O)CO	0.968	–
O=C1C2CC3CC1CC(O)(C3)C2	1.05	–
CCN1CCN(c2cc3c(cc2F)c(=O)c(C(=O)O)cn3C2CC2)CC1	–	1.1
Cc1nnc(NS(=O)(=O)c2ccc(N)cc2)s1	1.25	–
CC1Cc2ccccc2N1NC(=O)c1ccc(Cl)c(S(N)(=O)=O)c1 (configuration not stated)	1.07	–
CO/N=C(\C(=O)N[C@@H]1C(=O)N2C(C(=O)O)=C(Cn3ccc(=N)n3CCO)CS[C@H]12)c1csc(N)n1	–	0.761
CCC(=O)c1c(O)cc(O)cc1O	1.01	–
CN1CCN(CCOc2cc(OC3CCOCC3)c3c(Nc4c(Cl)ccc5c4OCO5)ncnc3c2)CC1	0.531	–
CO/N=C(\C(=O)N[C@@H]1C(=O)N2C(C(=O)O)=C(COC(N)=O)CS[C@H]12)c1ccco1	1.25	–
O=C(NCC(O)CO)c1c(I)c(C(=O)NCC(O)CO)c(I)c(N(CCO)C(=O)CO)c1I (configuration not stated)	1.26	–
Nc1ccc(S(=O)(=O)Nc2ccnn2-c2ccccc2)cc1	0.835	–
CCCCCCCCCCCCCCCC(=O)O[C@@H]1[C@@H](O)[C@@H](O)[C@@H]([C@H](NC(=O)[C@@H]2C[C@@H](CCC)CN2C)[C@H](C)Cl)O[C@@H]1SC	1.16	–
O=C([O-])[O-].[Na+].[Na+]	–	1.12
CC(=O)N1C[C@H](O)C[C@H]1C(=O)O	0.968	–
C[C@H](CCC(=O)O)[C@H]1CC[C@H]2[C@@H]3CC[C@@H]4C[C@H](O)CC[C@]4(C)[C@H]3C[C@H](O)[C@]12C	1.08	–
Nc1ccc2cc3ccc(N)cc3nc2c1	–	0.103
O=C1CC2(CCCC2)CC(=O)N1CCCCN1CCN(c2ncccn2)CC1	1.01	–

In the list so far, these have two or more sulfur atoms.
SMILES	relative cell density (vehicle: DMSO)	relative cell density (vehicle: Water)
Cc1cnc(NC(=O)C2=C(O)c3ccccc3S(=O)(=O)N2C)s1	1.12	–
Cc1nnc(NS(=O)(=O)c2ccc(N)cc2)s1	1.25	–
CO/N=C(\C(=O)N[C@@H]1C(=O)N2C(C(=O)O)=C(Cn3ccc(=N)n3CCO)CS[C@H]12)c1csc(N)n1	–	0.761

Continuation:

SMILES	relative cell density (vehicle: DMSO)	relative cell density (vehicle: Water)
CC[C@H]1OC(=O)[C@H](C)[C@@H](O[C@H]2C[C@@](C)(OC)[C@@H](O)[C@H](C)O2)[C@H](C)[C@@H](O[C@@H]2O[C@H](C)C[C@H](N(C)C)[C@H]2O)[C@](C)(O)C[C@@H](C)[C@@H]2N[C@@H](COCCOC)O[C@H]([C@H]2C)[C@]1(C)O	1.02	–
N#Cc1cc(-c2n[nH]c(-c3ccncc3)n2)ccn1	1.01	–
Cc1c(F)cc(C(=O)NC2CC2)cc1-c1ccc(C(=O)NCC(C)(C)C)cn1	1.21	–
COC(=O)N(C)c1c(N)nc(-c2nn(Cc3ccccc3F)c3ncccc23)nc1N	1.05	–
C[C@H](O)C(=O)Nc1c(I)c(C(=O)NC(CO)CO)c(I)c(C(=O)NC(CO)CO)c1I	1.25	–
CC(=O)OCC(COC(C)=O)OC(C)=O	0.916	–
CC(=O)OCC=C(C)C=CC=C(C)C=CC1=C(C)CCCC1(C)C	0.982	–
c1cnc2cc3c(cc2n1)[C@@H]1CNC[C@H]3C1	–	1.04
NC(=O)N1c2ccccc2C=Cc2ccccc21	0.671	–
Clc1ccc(C(Cn2ccnc2)OCc2c(Cl)cccc2Cl)c(Cl)c1 (configuration not stated)	1.1	–
NCCC[C@H](N)C(=O)O	–	0.912
NC(CO)(CO)CO	1.18	–
O=C(CCCCCCNC(=O)c1cnc(N(c2ccccc2)c2ccccc2)nc1)NO	0.609	–
C=C1CC[C@H](O)C/C1=C/C=C1\CCC[C@]2(C)[C@@H]([C@H](C)CCCC(C)(C)O)CC[C@@H]12	1.16	–
CC(C)[C@H]1C(=O)N[C@@H](CCCN=C(N)N)C(=O)NCC(=O)N[C@@H](CC(=O)O)C(=O)N[C@H](Cc2ccccc2)C(=O)N1C	1.15	–
Nc1nc(=O)c2nc(CNc3ccc(C(=O)N[C@@H](CCC(=O)O)C(=O)O)cc3)cnc2[nH]1	–	1.04
Nc1nc(F)nc2c1ncn2[C@@H]1O[C@H](CO)[C@@H](O)[C@@H]1O	1.31	–
CC[C@H]1OC(=O)[C@H](C)[C@@H](O[C@H]2C[C@@](C)(OC)[C@@H](O)[C@H](C)O2)[C@H](C)[C@@H](O[C@@H]2O[C@H](C)C[C@H](N(C)C)[C@H]2O)[C@](C)(O)C[C@@H](C)/C(=N\OCOCCOC)[C@H](C)[C@@H](O)[C@]1(C)O	1.09	–
CC(C)NCC(O)COc1ccc(COCCOC(C)C)cc1 (configuration not stated)	1.04	–
O=C1CN2Cc3c(ccc(Cl)c3Cl)N=C2N1	0.696	–
Nc1nc(Cl)nc2c1ncn2[C@@H]1O[C@H](CO)[C@@H](O)[C@@H]1F	1.06	–
CC(C)C(=O)OCC(=O)[C@@]12O[C@H](C3CCCCC3)O[C@@H]1C[C@H]1[C@@H]3CCC4=CC(=O)C=C[C@]4(C)[C@H]3[C@@H](O)C[C@@]12C	1.25	–

2 successive entries out of the list so far, for reference:
SMILES	relative cell density (vehicle: DMSO)	relative cell density (vehicle: Water)
Nc1nc(F)nc2c1ncn2[C@@H]1O[C@H](CO)[C@@H](O)[C@@H]1O	1.31	–
CC[C@H]1OC(=O)[C@H](C)[C@@H](O[C@H]2C[C@@](C)(OC)[C@@H](O)[C@H](C)O2)[C@H](C)[C@@H](O[C@@H]2O[C@H](C)C[C@H](N(C)C)[C@H]2O)[C@](C)(O)C[C@@H](C)/C(=N\OCOCCOC)[C@H](C)[C@@H](O)[C@]1(C)O	1.09	–

The listing continues.

SMILES	relative cell density (vehicle: DMSO)	relative cell density (vehicle: Water)
CN1CC[C@H](c2c(O)cc(O)c3c(=O)cc(-c4ccccc4Cl)oc23)[C@H](O)C1	0.0334	–
COc1cc(S(=O)(=O)O)ccc1O	1.08	–
CC(C)(C)NC[C@H](O)COc1nsnc1N1CCOCC1	1.01	–
Cc1ccc(C(=O)Nc2ccc(CN3CCN(C)CC3)c(C(F)(F)F)c2)cc1C#Cc1cnc2cccnn12	0.294	–
O=C(Nc1cccc2c(=O)cc(-c3nnn[nH]3)oc12)c1ccc(OCCCCc2ccccc2)cc1	0.981	–
NCCCC[C@H](N[C@@H](CCc1ccccc1)C(=O)O)C(=O)N1CCC[C@H]1C(=O)O	–	0.829
CO/N=C(\C(=O)N[C@@H]1C(=O)N2C(C(=O)O)=C(CSc3nc(=O)c(O)nn3C)CS[C@H]12)c1csc(N)n1	–	1.3
COC1=C(OC)C(=O)C(CCCCCCCCCCO)=C(C)C1=O	0.931	–
CCOC(=O)[C@H](CCc1ccccc1)N[C@H]1CCc2ccccc2N(CC(=O)O)C1=O	1.08	–
COc1cccc(-c2ccc(NC(=O)C3=C(C(=O)O)CCC3)c(F)c2)c1	1.14	–
CCCN[C@H]1CCc2nc(N)sc2C1	1.31 and 1.26 and 1.03	–
O=C(NC1CCN(CCCCC2(C(=O)NCC(F)(F)F)c3ccccc3-c3ccccc32)CC1)c1ccccc1-c1ccc(C(F)(F)F)cc1	1.52 and 1.14	–
Cc1c(-c2ccnn2C)cc(C(=O)NCc2ccc(S(C)(=O)=O)cn2)c(=O)n1-c1cccc(C(F)(F)F)c1	1.29	–
Nc1ncn([C@@H]2O[C@H](CO)[C@@H](O)[C@H]2O)c(=O)n1	1.22	–
CC(COc1ccccc1)N(CCCl)Cc1ccccc1 (configuration not stated)	1.19	–
CCCNC(C)C(=O)Nc1ccccc1C (configuration not stated)	1.07	–
COc1cc(/C=C/C(=O)N2CCN(CC(=O)N3CCCC3)CC2)cc(OC)c1OC	1.27	–
Cn1c(=O)cc(N2CCC[C@@H](N)C2)n(Cc2cc(F)ccc2C#N)c1=O	0.693 and 1.26	–
c1ccc(C2CN3CCSC3=N2)cc1 (configuration not stated)	–	1.42
Nc1ccc(S(=O)(=O)c2ccc(N)cc2)cc1	1.15	–
CN(C)CCc1c[nH]c2ccc(Cn3cncn3)cc12	1.04	–
OCCN1CCN(CCCN2c3ccccc3Sc3ccc(Cl)cc32)CC1	1.27	–

SMILES	relative cell density (vehicle: DMSO)	relative cell density (vehicle: Water)
CCC[C@H](N[C@@H](C)C(=O)N1[C@H](C(=O)O)C[C@@H]2CCCC[C@@H]21)C(=O)OCC	–	0.947
CCCC(=O)O[C@]1(C(=O)COC(C)=O)CC[C@H]2[C@@H]3C[C@H](F)C4=CC(=O)C=C[C@]4(C)[C@@]3(F)[C@@H](O)C[C@@]21C	1.47	–
Cn1ncc(Cl)c1-c1cc(C(=O)N[C@H](CN)Cc2ccc(F)c(F)c2)oc1Cl	1.19	–
COc1ccc(NS(=O)(=O)c2ccc(N)cc2)nn1	1.21	–
CC1(C)OC(=O)NC1=O	0.874	–
CC(=O)Oc1cccc2c1C(=O)c1c(OC(C)=O)cc(C(=O)O)cc1C2=O	1.05	–
N=C(N)NC(=N)N1CCOCC1	1.02	–
N[C@H]1C(O)O[C@H](CO)[C@@H](O)[C@@H]1O (some centres not stated)	1.15	–
CN1CCCC(n2nc(Cc3ccc(Cl)cc3)c3ccccc3c2=O)CC1 (configuration not stated)	1.18	–
CCCC(=O)Nc1ncnc2c1ncn2[C@@H]1O[C@@H]2COP(=O)(O)O[C@H]2[C@H]1OC(=O)CCC	1.02	–
CN(C)CCC[C@@]1(c2ccc(F)cc2)OCc2cc(C#N)ccc21	1.18	–
CC(C)C[C@H](NC(=O)[C@H](CCc1ccccc1)NC(=O)CN1CCOCC1)C(=O)N[C@@H](Cc1ccccc1)C(=O)N[C@@H](CC(C)C)C(=O)[C@@]1(C)CO1	0.201	–
NC(=O)N/N=C/c1ccc([N+](=O)[O-])o1	1.01	–
O=C(O[C@H]1CN2CCC1CC2)N1CCc2ccccc2[C@@H]1c1ccccc1	–	0.614
CO[C@@H]1[C@@H](OC(N)=O)[C@@H](O)[C@H](Oc2ccc3c(O)c(NC(=O)c4ccc(O)c(CC=C(C)C)c4)c(=O)oc3c2C)OC1(C)C	1.15	–
CCN1CCN(C(=O)N[C@@H](C(=O)N[C@@H]2C(=O)N3[C@@H]2SC(C)(C)[C@@H]3C(=O)O)c2ccccc2)C(=O)C1=O	1.06	–
C=C=CCNC(=O)c1ccc(F)cc1	1.05	–
CCN(CC)CC#CCOC(=O)C(O)(c1ccccc1)C1CCCCC1 (configuration not stated)	1.02	–
Cc1ncc([N+](=O)[O-])n1CCO	1.23	–
CCN(Cc1ccncc1)C(=O)C(CO)c1ccccc1 (configuration not stated)	1.04	–
CC(C)N1CCN(c2ccc(OCC3COC(Cn4cncn4)(c4ccc(Cl)cc4Cl)O3)cc2)CC1 (configuration not stated)	1.22	–
CN1C2CCCC1CC(NC(=O)c1nn(C)c3ccccc13)C2 (configuration not stated)	1.06	0.985

SMILES	relative cell density (vehicle: DMSO)	relative cell density (vehicle: Water)
Cc1ccc(C(=O)c2cc(O)c(O)c([N+](=O)[O-])c2)cc1	1.13	–
O=C([O-])c1ccccc1O.[Na+]	1.07	–
COc1ccc2[nH]cc(CCNC(C)=O)c2c1	1.04	–
C=CC[C@@H]1/C=C(\C)C[C@H](C)C[C@H](OC)[C@H]2O[C@@](O)(C(=O)C(=O)N3CCCC[C@H]3C(=O)O[C@H](/C(C)=C/[C@@H]3CC[C@@H](O)[C@H](OC)C3)[C@H](C)[C@@H](O)CC1=O)[C@H](C)C[C@@H]2OC	1.13	–
COc1cc(CNC(=O)CCCCC=CC(C)C)ccc1O	0.974	–
Cc1ccc(S(=O)(=O)NC(=O)NN2CC3CCCC3C2)cc1 (configuration not stated)	1.13	–
COc1nc(C)nc(Cl)c1NC1=NCCN1	1.17	–
Cc1ccc(NC(=O)c2ccc(CN3CCN(C)CC3)cc2)cc1Nc1nc(-c2cccnc2)cs1	1.25	–
NCCS(=O)(=O)O	–	1.04
COc1cc2nc(N3CCN(C(=O)c4ccco4)CC3)nc(N)c2cc1OC	–	0.385
CCCCS(=O)(=O)N[C@@H](Cc1ccc(OCCCCC2CCNCC2)cc1)C(=O)O	0.91	–
CC(C)OC(=O)CCC/C=C\C[C@@H]1[C@@H](/C=C/C(F)(F)COc2ccccc2)[C@H](O)C[C@@H]1O	–	1.06
Oc1c(I)cc(I)c2cccnc12	1.43	–
O=C(CCCN1CC=C(n2c(=O)[nH]c3ccccc32)CC1)c1ccc(F)cc1	1.04	–
COc1ccc2cc(CCC(C)=O)ccc2c1	1.03	–
CCn1cc(C(=O)O)c(=O)c2ccc(C)nc21	1.04	–
C[C@H]1[C@@H](O)O[C@@H]2O[C@@]3(C)CC[C@H]4[C@H](C)CC[C@@H]1[C@@]24OO3	0.606	–
C#CCN(C)Cc1ccccc1	1.15	–

Reference: the supplement of paper PMC9226226
